Test results published in PMC7819943, “Rice protein-binding microarrays: a tool to detect cis-acting elements near promoter regions in rice”.
Some of the results follow.

The chains behind the UniProt entries cited, without tags or fusion partners.
UniProt Q0JBA9, entry or part of it: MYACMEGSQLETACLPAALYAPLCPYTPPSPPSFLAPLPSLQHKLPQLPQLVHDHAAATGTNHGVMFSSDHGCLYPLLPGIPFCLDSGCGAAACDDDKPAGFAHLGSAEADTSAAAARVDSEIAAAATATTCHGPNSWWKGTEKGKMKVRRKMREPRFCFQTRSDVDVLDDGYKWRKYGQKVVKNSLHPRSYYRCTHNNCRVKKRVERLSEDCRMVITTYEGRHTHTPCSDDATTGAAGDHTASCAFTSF

These sequences were tested against OsWRKY34 (Oryza sativa, UniProt Q0JBA9 1-250) (assay: protein-binding microarray (RPBM); PBS, 2% BSA, 51.3 ng/ul salmon testes DNA, 50 uM zinc acetate, 200 nM TF, 25 C, 1 h; high values mean tight binding). Settings: protein: recombinant; tags: N-terminal polyhistidine and DsRed monomer fusion (pET32a); label: CyDye5-dUTP incorporated in the synthesized complementary strand; 3' TTTTT single-stranded linker to array surface; dsDNA, one strand shown.
Outline: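 Using Ni–NTA, transcription factors fused N-terminally to polyhistidine and DsRed were purified after expression in E. coli BL21-CodonPlus. These were incubated at 200 nM with a blocked, double-stranded custom Agilent array for 1 h at 25 °C in a buffer containing 50 µM zinc acetate, and the array was washed. The binding signal is per-feature fluorescence intensity (arbitrary units) on an Axon 4000B scanner.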

Sequence	binding signal
AATTTTTACTCGTACTCTTAACTATCACACATATCTATAACGGAGTCACCTAGTGCAG	8200 fluorescence intensity (a.u.)
GCAGCATTCAATCAGTCAACACAGGTGTTCTAGCCATATACGGAGTCACCTAGTGCAG	9400 fluorescence intensity (a.u.)
TGCCATCTTTGTACTGTTCCAGTGTTTCTACTCCTCTTGCCGGAGTCACCTAGTGCAG	8090 fluorescence intensity (a.u.)
TTTTCCACATTAGTACTCTATACATATGTCAAACATTTAACGGAGTCACCTAGTGCAG	9080 fluorescence intensity (a.u.)
GGGGATTGGGAGTTTACACGAGGGAATTGATGATGAGATTCGGAGTCACCTAGTGCAG	9070 fluorescence intensity (a.u.)
AATATTCTCCCGTCGAGATCCGTATATGCTGTTGCCTACTCGGAGTCACCTAGTGCAG	8600 fluorescence intensity (a.u.)
GTGTATGGGGTCTGATTGCTTTGAGGCTTGCAGATGATGACGGAGTCACCTAGTGCAG	9770 fluorescence intensity (a.u.)
GGGGCATGGAGAGGATAGCAATCTTGACCTTCGTTTTCTCCGGAGTCACCTAGTGCAG	8440 fluorescence intensity (a.u.)
ATTTGTTCCATTGCTTCTTCTCTTGATCACTTGCTACCTCCGGAGTCACCTAGTGCAG	11900 fluorescence intensity (a.u.)
TTGCATCAGAGTTTCATCTCATCTATCGATCGGCTAATTTCGGAGTCACCTAGTGCAG	10300 fluorescence intensity (a.u.)
GTCGCTGCTTCTCCGCCCGTCCGCTAGCTACTTTTCCACCCGGAGTCACCTAGTGCAG	11900 fluorescence intensity (a.u.)
CACATGCTTATACCGTTCGTGCTGGAGTTCCTGATCGATGCGGAGTCACCTAGTGCAG	8070 fluorescence intensity (a.u.)
CTGGTCCTTTATCTTTCAGTGCCATGTCAGTATCTTGTCACGGAGTCACCTAGTGCAG	8870 fluorescence intensity (a.u.)
GGTCAGTTTGTTTCGTTGCAAGGATATTGACCCATCATTCCGGAGTCACCTAGTGCAG	9560 fluorescence intensity (a.u.)
GATGTCCGCCGCCGCCGCCTCCGCCTCTGCCTCCTCCTTCCGGAGTCACCTAGTGCAG	8500 fluorescence intensity (a.u.)
ACTGCTAGCTCCATCCATCTCCATCGAGATGTGTTGAATTCGGAGTCACCTAGTGCAG	8200 fluorescence intensity (a.u.)
TATGGTGCGCCCCACATGCCAGCCGATTTTCTTTCTTGCTCGGAGTCACCTAGTGCAG	9760 fluorescence intensity (a.u.)
ATCATAGGGCCTGTTCACTTTAATGCAAAAAAAACCTTACCGGAGTCACCTAGTGCAG	8160 fluorescence intensity (a.u.)
TCCACTCGCTCTAGTTTGCCTCGTCCCCGCCGCCACCACACGGAGTCACCTAGTGCAG	8760 fluorescence intensity (a.u.)
CACCTGAACATTTTTGCTCCTGTTCCTTTCAGTCGCAACACGGAGTCACCTAGTGCAG	8500 fluorescence intensity (a.u.)
GCTGAATGTTTGGTAGGTAGGTTGGCACCAGTACTTGGCCCGGAGTCACCTAGTGCAG	8390 fluorescence intensity (a.u.)

Sequence	binding signal
TCCATCCACTCTGCCACCGCCGCTGCCGCCACCATCCACTCGGAGTCACCTAGTGCAG	9700 fluorescence intensity (a.u.)
CTCTTTCCTGGCCCATCTGATTCCTCTCCCTTTTTCTGTGCGGAGTCACCTAGTGCAG	10800 fluorescence intensity (a.u.)
GCTCGATCTTTGACCAGCCAGTGGGGTTGGAGGAGGGAGGCGGAGTCACCTAGTGCAG	10400 fluorescence intensity (a.u.)
CTCATTTCTCTGCAAGCTGGCCAGGGCGAGGCGGGAGGGCCGGAGTCACCTAGTGCAG	10800 fluorescence intensity (a.u.)
GGGCGCGATGGGTTGGGGTGTGTTTCCGTGGATTGATGACCGGAGTCACCTAGTGCAG	21100 fluorescence intensity (a.u.)
TATGTCCTTATTGGTATTCATTTCATGCTCAACCTGTTCGCGGAGTCACCTAGTGCAG	9360 fluorescence intensity (a.u.)
CTTTCTACTCTTCTCCAGGAATTGTTTTGGATCATAGTAGCGGAGTCACCTAGTGCAG	8170 fluorescence intensity (a.u.)
ATTTTCCCATGCTTGTAGTGGACCTTACCTCTAGCTGAGCCGGAGTCACCTAGTGCAG	8030 fluorescence intensity (a.u.)
ATACTCGCTCCGTGTTTTAATATATGACGCTGTTGATTTTCGGAGTCACCTAGTGCAG	12700 fluorescence intensity (a.u.)
CTTATTCCGTTGTCATGGGCTCATTGTAACTGGTTGGCCCCGGAGTCACCTAGTGCAG	9240 fluorescence intensity (a.u.)
ACCTCTGTTTAATCCCCTTTCCGCGAATTTATTTACATTTCGGAGTCACCTAGTGCAG	9930 fluorescence intensity (a.u.)
CGCCCAACTTACTTCGCGTCTACTTCAATTCGCACCGCCACGGAGTCACCTAGTGCAG	12200 fluorescence intensity (a.u.)
TCTGCTCGTTGCTCGTTGATTCGCTCGCTTTCTGTCCCTGCGGAGTCACCTAGTGCAG	13200 fluorescence intensity (a.u.)
TAATATTTCTTGCGGTGGGTTGGATTGATATCGATTGTTTCGGAGTCACCTAGTGCAG	17600 fluorescence intensity (a.u.)
CATTGACTGACGACACAATCCATTCATCTTACTACATACTCGGAGTCACCTAGTGCAG	8050 fluorescence intensity (a.u.)
CGGACGGCCCACGTTACACCTGCCATACTCGTCCAGTCTTCGGAGTCACCTAGTGCAG	9560 fluorescence intensity (a.u.)
TGTGCCAGTTGTTAGTCATGATCTTCCTGATGTGTCATCCCGGAGTCACCTAGTGCAG	8080 fluorescence intensity (a.u.)
TGAGATAAATTTCGAACACTAAGGTGGTGTTTGAGAGGGGCGGAGTCACCTAGTGCAG	8210 fluorescence intensity (a.u.)
CAGCACAGCCTAGCCCAGCCCATTCAGCAACACACACAAACGGAGTCACCTAGTGCAG	10500 fluorescence intensity (a.u.)
GTTAGCTTAGCAGTAACTCGTTTGTTTTTGGTACATTCATCGGAGTCACCTAGTGCAG	8060 fluorescence intensity (a.u.)
TAAATGTTACTCACAATACACACTTCTCGTGTTGTCTATCCGGAGTCACCTAGTGCAG	8360 fluorescence intensity (a.u.)

Taken from above:
GTTAGCTTAGCAGTAACTCGTTTGTTTTTGGTACATTCATCGGAGTCACCTAGTGCAG | binding signal: 8060 fluorescence intensity (a.u.)
CAGCACAGCCTAGCCCAGCCCATTCAGCAACACACACAAACGGAGTCACCTAGTGCAG | binding signal: 10500 fluorescence intensity (a.u.)
